Measurements published in patent CN101879305A, “血清胸腺因子在制备抗肿瘤药物、肿瘤物理及化学治疗药物的保护药物方面的用途” (priority 2007, dated 2010).
Not every detail of the peptide structures is certain; ends, links or a residue may be inferred. Ends that are not written are not given here.

Legend:
H22实体瘤 = test: Anti-tumour test, H22 solid tumour in mice (Example 2); type: in vivo, 昆明小鼠; conditions: FTS high dose 0.25mg·kg-1 s.c. daily x14; vs blank group
昆明小鼠脾淋巴细胞 = test: Lymphocyte transformation test (MTT), spleen lymphocyte proliferation with or without ConA (Example 5); type: cell-based, 昆明小鼠
肝癌H22 = test: H22 tumour-bearing mice under cyclophosphamide chemotherapy: survival; type: in vivo, 昆明小鼠; conditions: 环磷酰胺 100mg/kg i.p. daily plus FTS 5 or 50μg/只 s.c.; recorded after 20 days; 5μg more marked than 50μg
[1] = Survival of Co60-irradiated mice (600 and 700 rad); type: in vivo, 昆明鼠; conditions: higher radiation dose 7.0Gy

In the case of “EAKSQGGSN [FTS, Glu-Ala-Lys-Ser-Gln-Gly-Gly-Ser-Asn]”, the 抑瘤率 (H22实体瘤) is reported as 40.7 %, the T细胞增殖效应 (昆明小鼠脾淋巴细胞; 0.002~0.008mg/ml, with or without ConA stimulation) is reported as “浓度依赖地增强T细胞增殖效应” and the T细胞增殖效应 (昆明小鼠脾淋巴细胞; concentration above 0.016mg/ml) is reported as “促进作用减弱”. For the same sequence, the “effect on survival under 环磷酰胺 chemotherapy” value (肝癌H22) was “减小环磷酰胺的副作用” and the 存活率和平均存活时间 [1] was “提高了小鼠的存活率和平均存活时间”.
